Experimental data taken from US9464064B2, “HCV helicase inhibitors and methods of use thereof” (University of Kansas, priority 2011, dated 2016).
For some assays here: At least one compound was matched to its structure with a doubt left. Some of these results come from one statement about several compounds together.

Chains of the proteins cited; added tags and fusions are not shown. Residues count along the entry.
UniProt Q9WMX2, 1027-1657: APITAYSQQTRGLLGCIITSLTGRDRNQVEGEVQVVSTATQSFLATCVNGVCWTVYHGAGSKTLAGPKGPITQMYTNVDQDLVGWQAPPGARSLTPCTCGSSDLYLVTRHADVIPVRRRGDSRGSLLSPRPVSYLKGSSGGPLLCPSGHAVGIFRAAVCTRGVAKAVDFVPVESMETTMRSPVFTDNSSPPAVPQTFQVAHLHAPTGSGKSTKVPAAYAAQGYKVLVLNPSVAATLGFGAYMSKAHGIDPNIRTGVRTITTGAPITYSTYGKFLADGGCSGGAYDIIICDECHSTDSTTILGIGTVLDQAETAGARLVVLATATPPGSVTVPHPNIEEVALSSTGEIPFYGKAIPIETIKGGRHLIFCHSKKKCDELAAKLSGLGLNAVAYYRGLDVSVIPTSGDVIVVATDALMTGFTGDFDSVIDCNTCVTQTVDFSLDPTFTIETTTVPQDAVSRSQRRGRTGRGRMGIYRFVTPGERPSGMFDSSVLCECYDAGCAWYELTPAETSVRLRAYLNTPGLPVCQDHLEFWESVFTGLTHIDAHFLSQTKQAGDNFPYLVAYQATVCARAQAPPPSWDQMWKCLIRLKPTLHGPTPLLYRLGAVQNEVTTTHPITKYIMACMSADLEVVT

Tests used:
scNS4A-NS3 = scNS4A-NS3 (Hepatitis C virus genotype 1b, UniProt Q9WMX2); experiment: NS3 protease assay (ENZOLYTE 520), full-length; assay type: biochemical, hepatitis C virus genotype 1b(con1); parameters: other: protease versus helicase; Both constructs carry His tags; conditions: protease versus helicase
Procedure: All oligonucleotides were purchased from Integrated DNA Technologies (IDT, Coralville, Iowa). Primuline derivatives were synthesized and purified as described herein. Three different NS3 proteins were used in this study. Two were truncated C-terminally His-tagged NS3 proteins lacking the N-terminal protease, called NS3h, the third was a full-length NS3 with the portion of NS4A needed for protease activation fused to its N-terminus, called scNS4A-NS3 (Howe, et al. (1999) Protein Sci. 8:1332-41), and the fourth was a 23 kDa scNS4A-NS3 protease fragment lacking the helicase domains, called scNS4A-NS3p (Protein One, Rockville, Md.). NS3h was expressed from two different HCV strains. NS3h_1b(con1) was from the con1 strain of genotype 1b (GENBANK accession AB114136), and NS3h_2a(JFH1) was from the JFH1 strain of HCV genotype 2a (GENBANK accession AJ238799). […] His-tagged recombinant NS3h_1b(con1), NS3h_2a(JFH1), and scNS4A-NS3 (also from genotype 1b(con1)) were expressed, and purified as previously described (Frick, et al. (2010) supra; Lam, et al. (2003) J. Virol. 77:3950-3961). The scNS4A-NS3p (genotype 1b) was from Protein One. A plasmid expressing NS3h from dengue virus strain 2 (NS3h_DV2)(GENBANK accession 2BMF) is known in the art (Xu, et al. (2005) J. Virol. 79:10278-10288), and used to express and purify NS3h_DV2 (Belon, et al. (2010) supra)
All NS3 protease assays were carried out using the 5-Carboxyfluorescein-labeled substrate from the AnaSpec. ENZOLYTE 520 Protease Assay Kit (AnaSpec, San Jose, Calif.). Each assay contained 5 nM scNS4A-NS3 or 50 nM scNS4A-NS3p, […], 5% DMSO and 1× Anaspec HCV protease assay buffer. Assays were carried out in a total volume of 20 μl in black 384-well plates with fluorescence at 520 nm measured using a BMG FLUOstar Omega fluorescence spectrophotometer. Reactions were performed with eight concentrations of a two-fold dilution series of each compound (in duplicate) starting at 100 μM.

[1] = system: NS3 protease in Huh7.5/HCV Con1sg Rluc cells; experiment: IPS-1 (MAVS)-based reporter cell-based protease assay; parameters: species or system hepatitis C virus; conditions: 10 μM, 72 hours
MBHA DNA substrate = experiment: Fluorescent intercalation displacement (FID) assay, ethidium bromide; assay type: binding; conditions: compound at 1.5 μM
Procedure: Fluorescent intercalation displacement (FID) assays (Boger, et al. (2001) J. Am. Chem. Soc. 123:5878-5891) were used to measure the ability of a compound to bind the MBHA substrate. The concentration at which half the ethidium bromide is displaced (EC50) was determined using the different conditions as above to more closely mimic the conditions of a standard helicase assay. Each 100 μL reaction contained 25 mM MOPS pH 6.5, 0.16 μM MBHA DNA substrate (lacking Cy5 and IBQ-RQ modifications), 2 μM ethidium bromide, and various concentrations of test compound. Fluorescence of ethidium bromide was monitored using excitation and emission wavelengths of 545 and 595 nm, respectively, on a Cary Eclipse fluorescence spectrophotometer in white 96-well plates. The amount of ethidium bromide-DNA complex fluorescence was used to estimate the ability of compounds to bind DNA, and therefore displace the fluorescent intercalator (ethidium bromide).
In Equation 4, Fc is the fluorescence in the presence of the compound, F(−) is the average DMSO-only negative controls, and F(+) is the average positive controls (100 μM berenil). EC50 values were from a normalized dose-response curve.
These twelve hits were then subjected to a counterscreen designed to independently identify DNA binding compounds using a modified fluorescent intercalator displacement (FID) assay (Boger, et al. (2001) supra). […]

Structure (SMILES) | times less active against the protease than the helicase (scNS4A-NS3) | also measured
Cc1ccc2nc(-c3ccc4nc(-c5ccc(NC(=O)c6cccc(Cl)c6)cc5)sc4c3)sc2c1S(=O)(=O)O [Compound 17, 2′-(4-(3-chlorobenzamido)phenyl)-6-methyl-[2,6′-bibenzo[d]thiazole]-7-sulfonic acid] | over 40 times | 
Cc1ccc2nc(-c3ccc4nc(-c5ccc(NC(=O)c6ccc7ccccc7c6)cc5)sc4c3)sc2c1S(=O)(=O)O [Compound 33, 2′-(4-(2-naphthamido)phenyl)-6-methyl-[2,6′-bibenzo[d]thiazole]-7-sulfonic acid] | over 40 times | 
CCC[C@H](NC(=O)[C@@H]1[C@H]2CCC[C@H]2CN1C(=O)[C@@H](NC(=O)[C@@H](NC(=O)c1cnccn1)C1CCCCC1)C(C)(C)C)C(=O)C(=O)NC1CC1 [telaprevir, reference compound] |  | nuclear translocation of RFP-NLS (cellular NS3 protease activity) [1]: prevented this translocation
Cc1ccc2nc(-c3ccc4nc(-c5ccc(NC(=O)c6ccc(F)cc6)cc5)sc4c3)sc2c1S(=O)(=O)O.N [Compound 7, 2′-(4-(4-fluorobenzamido)phenyl)-6-methyl-[2, bibenzo[d]thiazole]-7-sulfonic acid] | over 40 times | 
[Cl][Cd][Cl] [CdCl2, reference compound] |  | decrease of fluorescence of DNA-bound ethidium bromide (MBHA DNA substrate): less than 8%
